Results reported in PMC10450190, “RIG-I recognizes metabolite-capped RNAs as signaling ligands”.
For at least one entry, the source does not settle the construct or the ends of the probe. For some assays here: At least one verdict was read from the data and is not stated in words by the source. Tags and fusion partners may be left off the protein sequences shown.

Key:
RIG-I [1] = target: T1, RIG-I (UniProt O95786); assay: competition (fluorescence polarization); details: 0.5 mM ATP, vs labeled 5' PPP ds39; 5' triphosphate on strand 1; 3-nt 5' DNA overhang on strand 2; 50 mM MOPS pH 7.4, 5 mM DTT, 5 mM MgCl2, 0.01% Tween20; 25 C (ATPase, 2 mM ATP; FP, 0.5 mM ATP); EMSA 4 C with 2 mM ATP, 75 nM RIG-I, 25 nM RNA; recombinant protein; residues 1-925
T1 sequence (looked up): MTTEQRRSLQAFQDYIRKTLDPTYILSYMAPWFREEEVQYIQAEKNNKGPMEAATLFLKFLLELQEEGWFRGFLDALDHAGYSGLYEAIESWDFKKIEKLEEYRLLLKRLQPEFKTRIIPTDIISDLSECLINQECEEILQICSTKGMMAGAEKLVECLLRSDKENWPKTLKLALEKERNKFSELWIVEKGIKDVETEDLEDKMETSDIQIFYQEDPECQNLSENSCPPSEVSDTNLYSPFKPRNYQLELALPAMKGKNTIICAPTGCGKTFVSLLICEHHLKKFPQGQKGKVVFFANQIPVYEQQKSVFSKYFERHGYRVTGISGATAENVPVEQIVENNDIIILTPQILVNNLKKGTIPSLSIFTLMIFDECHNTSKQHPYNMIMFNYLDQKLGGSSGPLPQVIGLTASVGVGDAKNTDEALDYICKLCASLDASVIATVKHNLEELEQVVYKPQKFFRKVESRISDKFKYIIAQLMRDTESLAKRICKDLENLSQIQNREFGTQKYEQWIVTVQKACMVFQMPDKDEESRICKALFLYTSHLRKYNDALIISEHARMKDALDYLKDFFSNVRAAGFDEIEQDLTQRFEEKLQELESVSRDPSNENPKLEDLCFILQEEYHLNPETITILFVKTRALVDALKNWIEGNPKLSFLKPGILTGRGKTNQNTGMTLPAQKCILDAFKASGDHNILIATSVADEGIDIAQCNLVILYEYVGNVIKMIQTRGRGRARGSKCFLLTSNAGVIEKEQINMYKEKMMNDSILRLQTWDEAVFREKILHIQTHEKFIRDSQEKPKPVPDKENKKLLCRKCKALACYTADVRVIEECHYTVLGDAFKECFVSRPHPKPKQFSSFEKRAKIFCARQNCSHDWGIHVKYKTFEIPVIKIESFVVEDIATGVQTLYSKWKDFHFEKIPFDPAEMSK

RIG-I [2] = target: T1, RIG-I; assay: EMSA; details: 2 mM ATP, dimers and trimers, first 3 nt of strand 2 are DNA (dTdTdT), 50 mM MOPS pH 7.4, 5 mM DTT, 5 mM MgCl2, 0.01% Tween20, 25 C (ATPase, 2 mM ATP), EMSA 4 C with 2 mM ATP, 75 nM RIG-I, 25 nM RNA, recombinant protein, residues 1-925, label: fluorescein on second T of strand 2
RIG-I [3] = target: T1, RIG-I; assay: RNA-dependent ATPase titration (KD,app); details: 2 mM ATP, 5 mM Mg2+; 5' dephospho-CoA cap on strand 1; first 3 nt of strand 2 are DNA (dTdTdT); partly disulfide-linked RNA dimer; 50 mM MOPS pH 7.4, 5 mM DTT, 5 mM MgCl2, 0.01% Tween20; 25 C (ATPase, 2 mM ATP); recombinant protein; residues 1-925; label: fluorescein on second T of strand 2

AGUUGGUGGUUGUUGUGUGUUUGUGGUUGGUUUGUUUGG / TTTCCAAACAAACCAACCACAAACACACAACAACCACCAACU [5' PPP ds39, unlabeled competitor]
binding result (RIG-I [1]): binds

AGUUGGUGGUUGUUGUGUGUUUGUGGUUGGUUUGUUUGG / TTTCCAAACAAACCAACCACAAACACACAACAACCACCAACU [5' NAD+ ds39]
binding result (RIG-I [2]; 5' NAD+ cap on strand 1): binds

AGUUGGUGGUUGUUGUGUGUUUGUGGUUGGUUUGUUUGG / TTTCCAAACAAACCAACCACAAACACACAACAACCACCAACU [5' dephospho-CoA ds39]
binding result (RIG-I [2]; 5' dephospho-CoA cap on strand 1, partly disulfide-linked RNA dimer): binds | Kd (RIG-I [3]): 6.4 nM

AGUUGGUGGUUGUUGUGUGUUUGUGGUUGGUUUGUUUGG / TTTCCAAACAAACCAACCACAAACACACAACAACCACCAACU [5' FAD ds39]
binding result (RIG-I [2]; 5' FAD cap on strand 1): binds
